This assay concerns BDF1 mice, P388 leukemia ip, median survival T/C. The assay can be described thus: NCI In Vivo Anticancer Drug Screen. Data for tumor model P388 Leukemia (intraperitoneal) in B6D2F1 (BDF1) mice. The following applies: T/C endpoint: median survival time, higher T/C = longer survival. Summed up:
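Mice carrying the transplantable tumour receive compound or vehicle. Survival is followed in each arm, and the treated measure is divided by the vehicle measure.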

The mark [1] stands for this setting: dose: 100.0 mg/kg/injection, schedule: Q01DX009 (ip), vehicle: saline with Tween-80.
Where [2] appears, read: dose: 200.0 mg/kg/injection, schedule: Q01DX009 (ip), vehicle: saline with Tween-80.
[3] abbreviates: dose: 25.0 mg/kg/injection, schedule: Q01DX001 (ip), vehicle: saline with Tween-80.
Setting [4] is: dose: 50.0 mg/kg/injection, schedule: Q01DX001 (ip), vehicle: saline with Tween-80.
The mark [5] stands for this setting: dose: 200.0 mg/kg/injection, schedule: Q04DX003 (ip), vehicle: Klucel (hydroxypropylcellulose) (HPC).
Where [6] appears, read: dose: 400.0 mg/kg/injection, schedule: Q04DX003 (ip), vehicle: saline.
Setting [7] is: dose: 25.0 mg/kg/injection, schedule: Q01DX009 (ip), vehicle: saline.
[8] abbreviates: dose: 100.0 mg/kg/injection, schedule: Q01DX009 (ip), vehicle: saline.
The mark [9] stands for this setting: dose: 200.0 mg/kg/injection, schedule: Q01DX009 (ip), vehicle: Klucel (hydroxypropylcellulose) (HPC).

Molecules are shown by their SMILES. The list does not hold the whole screen: it gathers tests that were run many times, whatever their T/C, doses with no T/C, and many T/C values between a quarter and a half above the control. Further doses and runs are listed elsewhere. T/C is the treated group as % of the vehicle group. Some doses have a count of surviving animals in place of a T/C: the source holds a T/C of zero for them, seemingly a mark for toxic or unscored doses. Some survivor counts are full or nearly so, which does not show that the dose was tolerated: the source hardly ever lists a survival T/C far under the control, and the zero likely stands for such cases as well. Counts of survivors are from the toxicity check (mostly the fifth day) where no day follows; animals may have died later. Schedule codes are those of the source, taken here to give the interval after Q, in days (D) or hours (H), and the number of doses after X. Some doses were run more than once; the values are given in rising order. For survival time, this PubChem deposit counts one and a half times the control or more as active, and values a quarter to a half above the control carry no call in these data; other NCI protocols may use other cut-offs. Some T/C values are followed by the survivors on the day toxicity was checked, most often the fifth; without a count, all were alive then.

With `Clc1nc2nc(Cl)n(Cl)c2nc1Cl`, the T/C was 134 % of control (dose: 50.0 mg/kg/injection, schedule: Q01DX009 (ip), vehicle: water) and 127 % of control [5 of 6 alive] under setting [1]. The survivor count by setting is: under setting [1], 5 of 6; under setting [2], 2 of 6 and 6 of 6; (dose: 300.0 mg/kg/injection, schedule: Q01DX009 (ip), vehicle: water) 2 of 6; (dose: 400.0 mg/kg/injection, schedule: Q04DX003 (ip), vehicle: saline with Tween-80) 4 of 6.

`Oc1ccccc1C=NCCN1CC1.Oc1ccccc1C=NCCN1CC1.[Cu]`: the T/C (dose: 12.5 mg/kg/injection, schedule: Q01DX001 (ip), vehicle: saline sonified) was 136 % of control.

Take `O=C(O)c1ccc(O)c(=O)cc1`: the survivor count is listed as 3 of 6 under setting [3] and 1 of 6 under setting [4].

Regarding `S=C1NC(c2ccccc2)NC(c2ccccc2)S1` (stereo not drawn), under “dose: 400.0 mg/kg/injection, schedule: Q01DX001 (ip), vehicle: Klucel (hydroxypropylcellulose) (HPC)”, the survivor count is on record as 6 of 6.

Regarding `COCCCN=C(N)c1ccc(NC(=O)c2ccc(C(=O)Nc3ccc(C(N)=NCCCOC)cc3)cc2)cc1`, the T/C by setting is: (dose: 0.33 mg/kg/injection, schedule: Q01DX009 (ip), vehicle: saline with Tween-80) 138 % of control; (dose: 0.75 mg/kg/injection, schedule: Q01DX009 (ip), vehicle: saline with Tween-80) 139 % of control; (dose: 2.66 mg/kg/injection, schedule: Q04DX003 (ip), vehicle: saline with Tween-80) 131 % of control; (dose: 4.4 mg/kg/injection, schedule: Q04DX003 (ip), vehicle: saline with Tween-80) 136 % of control; (dose: 6.0 mg/kg/injection, schedule: Q04DX003 (ip), vehicle: saline with Tween-80) 136 % of control; (dose: 6.6 mg/kg/injection, schedule: Q04DX003 (ip), vehicle: saline with Tween-80) 145 % of control. Further, the T/C (dose: 10.0 mg/kg/injection, schedule: Q04DX003 (ip), vehicle: saline with Tween-80) is 145 % of control.

Consider `CCOC(=O)C(=O)Cc1sccc1[N+](=O)[O-]`, for which the survivor count under setting [5] is on record as 6 of 6.

For `O=C(O)c1nc2nc(Cl)c(Cl)nc2[nH]1`, the survivor count under setting [6] is listed as 3 of 6.

For `CCOC(=O)C(=Cc1ccc(C=C(C(=O)OCC)C(=O)OCC)cc1)C(=O)OCC`, the survivor count (dose: 400.0 mg/kg/injection, schedule: Q04DX003 (ip), vehicle: Klucel (hydroxypropylcellulose) (HPC)) was 5 of 6.

As to `CN(C(N)=O)c1c(O)nc(N)[nH]c1=O`, the survivor count is reported as 6 of 6 (dose: 25.0 mg/kg/injection, schedule: Q01DX009 (ip), vehicle: water) and 1 of 6 (dose: 200.0 mg/kg/injection, schedule: Q01DX009 (ip), vehicle: water).

Turning to `CCOC(=O)Cc1c[nH]c2ccc(N(CCCl)CCCl)cc12`, the T/C by setting is: (dose: 0.3 mg/kg/injection, schedule: Q01DX009 (ip), vehicle: Klucel (hydroxypropylcellulose) (HPC)) 137 % of control; (dose: 0.4 mg/kg/injection, schedule: Q04DX003 (ip), vehicle: Klucel (hydroxypropylcellulose) (HPC)) 129 and 140 % of control; (dose: 0.6 mg/kg/injection, schedule: Q04DX003 (ip), vehicle: Klucel (hydroxypropylcellulose) (HPC)) 140 % of control. Further, the survivor count (dose: 12.0 mg/kg/injection, schedule: Q01DX009 (ip), vehicle: Klucel (hydroxypropylcellulose) (HPC)) is on record as 6 of 6 and the survivor count (dose: 19.0 mg/kg/injection, schedule: Q04DX003 (ip), vehicle: Klucel (hydroxypropylcellulose) (HPC)) is recorded as 3 of 6.

With `NCCc1cnc2ccccc2n1`, the T/C is, setting by setting: under setting [7], 130 % of control; under setting [8], 125 % of control [5 of 6 alive].

Consider `CCCC(O)C(C)(C)[N+](=O)[O-]` (stereo not drawn), for which the survivor count (dose: 25.0 mg/kg/injection, schedule: Q01DX009 (ip), vehicle: saline with Tween-80) is given as 4 of 6.

Consider `NC1CC[N-]CC1.NC1CC[N-]CC1.[Cl][Pt+2]([Cl])([Cl])[Cl]`, for which the T/C (dose: 12.5 mg/kg/injection, schedule: Q01DX009 (ip), vehicle: saline) is 127 % of control; the T/C under setting [7] is 127 % of control; the T/C (dose: 50.0 mg/kg/injection, schedule: Q01DX009 (ip), vehicle: saline) was 135 % of control. Besides, the survivor count under setting [8] is listed as 0 of 6.

Consider `O=C(O)CCNSc1ccccc1[N+](=O)[O-]`, for which the survivor count under setting [2] is recorded as 2 of 6.

With `CC[NH-].CC[NH-].[Br][Pt+2][Br]`, the T/C (dose: 13.0 mg/kg/injection, schedule: Q04DX003 (ip), vehicle: other) is 129 % of control. Further, the survivor count (dose: 400.0 mg/kg/injection, schedule: Q04DX003 (ip), vehicle: other) was 4 of 6.

As to `Cc1cn(C)c2nccnc12`, the survivor count was 0 of 6 (dose: 400.0 mg/kg/injection, schedule: Q01DX009 (ip), vehicle: water) and 0 of 6 (dose: 400.0 mg/kg/injection, schedule: Q04DX003 (ip), vehicle: water).

On to `O=C(O)c1ccccc1C(=O)Nc1cc(Cl)ccc1Cl`, for which, under setting [5], the survivor count is reported as 6 of 6.

`CC1(C)OC2C=CC3C(OC(=O)C3(C)Cl)C2O1` (stereo not drawn): the T/C (dose: 200.0 mg/kg/injection, schedule: Q04DX002 (ip), vehicle: saline with Tween-80) is 128 % of control.

As for `C#CCCCOC(=O)Nc1ccccc1`, under setting [9], the survivor count is on record as 1 of 6.

Turning to `O=C(O)C1(C(=O)O)CC2CC=CCC2C1` (stereo not drawn), under setting [6], the survivor count is given as 1 of 6.

On to `Nc1nc2ncc(CNc3ccc(C(=O)NC(CCC(=O)O)C(=O)O)cc3)nc2c(=O)[nH]1` (stereo not drawn), for which the survivor count by setting is: (dose: 100.0 mg/kg/injection, schedule: Q01DX010 (ip), vehicle: saline) 4 of 6; (dose: 200.0 mg/kg/injection, schedule: Q01DX010 (ip), vehicle: saline) 1 of 6; (dose: 400.0 mg/kg/injection, schedule: Q01DX010 (ip), vehicle: saline) 0 of 6.

Turning to `FC(F)(F)c1ccc2c(c1)N(CCCN1CCN(CCN3CCCCC3)CC1)c1ccccc1S2`, the survivor count under setting [8] was 0 of 6.

With `CC(=O)c1ccccc1OS(=O)(=O)c1ccc([N+](=O)[O-])cc1`, the survivor count (dose: 50.0 mg/kg/injection, schedule: Q01DX009 (ip), vehicle: saline sonified) is reported as 6 of 6.

Take `CN(C)C=O.CN(C)C=O.[Cl][Sn]([Cl])([Cl])[Cl]`: the survivor count reads like this: (dose: 150.0 mg/kg/injection, schedule: Q01DX009 (ip), vehicle: Klucel (hydroxypropylcellulose) (HPC)) 5 of 6; (dose: 225.0 mg/kg/injection, schedule: Q01DX009 (ip), vehicle: Klucel (hydroxypropylcellulose) (HPC)) 2 of 6; (dose: 300.0 mg/kg/injection, schedule: Q04DX003 (ip), vehicle: Klucel (hydroxypropylcellulose) (HPC)) 2 of 6; (dose: 335.0 mg/kg/injection, schedule: Q01DX009 (ip), vehicle: Klucel (hydroxypropylcellulose) (HPC)) 0 of 6.

With `C(=C/c1ccc(/C=C/c2ccccc2)cc1)/c1ccccc1`, the T/C reads like this: (dose: 100.0 mg/kg/injection, schedule: Q01DX009 (ip), vehicle: Klucel (hydroxypropylcellulose) (HPC)) 131 % of control; under setting [9], 127 % of control [5 of 6 alive].

With `Cc1ccc(C2=C(Cl)C(=O)NC2=O)s1`, the survivor count under setting [3] is reported as 2 of 6 and the survivor count under setting [4] is given as 0 of 6.

`COc1c(C)c2c3c4c1C(=O)C(=CC4=O)NC(=O)/C(C)=C\C=C\C(C)C1OC(C)(C)OC(C1C)C(C)C(OC(C)=O)C(C)C(OC)/C=C/OC(C)(O2)C3=O` (stereo not drawn): the survivor count under setting [1] is reported as 6 of 6 and the survivor count under setting [2] was 6 of 6.

The values are drawn from PubChem BioAssay AID328 (DTP/NCI, 2004).
